Measured values published in patent US20060159681A1.
Changes are numbered by the printed parent chain. These are yes or no findings as the source states them, for the method shown. In cells and extracts the contact can be indirect. Some results given as binding are weak or reduced against the parent protein; the word gives no strength. For some of these results: Sequences can lack the tags named with a protein.

Chains of the proteins cited; added tags and fusions are not shown. Lines headed by an entry give the natural chain unless they say otherwise; changes in a name come on top. Residues count along the entry.
UniProt P0DMV8: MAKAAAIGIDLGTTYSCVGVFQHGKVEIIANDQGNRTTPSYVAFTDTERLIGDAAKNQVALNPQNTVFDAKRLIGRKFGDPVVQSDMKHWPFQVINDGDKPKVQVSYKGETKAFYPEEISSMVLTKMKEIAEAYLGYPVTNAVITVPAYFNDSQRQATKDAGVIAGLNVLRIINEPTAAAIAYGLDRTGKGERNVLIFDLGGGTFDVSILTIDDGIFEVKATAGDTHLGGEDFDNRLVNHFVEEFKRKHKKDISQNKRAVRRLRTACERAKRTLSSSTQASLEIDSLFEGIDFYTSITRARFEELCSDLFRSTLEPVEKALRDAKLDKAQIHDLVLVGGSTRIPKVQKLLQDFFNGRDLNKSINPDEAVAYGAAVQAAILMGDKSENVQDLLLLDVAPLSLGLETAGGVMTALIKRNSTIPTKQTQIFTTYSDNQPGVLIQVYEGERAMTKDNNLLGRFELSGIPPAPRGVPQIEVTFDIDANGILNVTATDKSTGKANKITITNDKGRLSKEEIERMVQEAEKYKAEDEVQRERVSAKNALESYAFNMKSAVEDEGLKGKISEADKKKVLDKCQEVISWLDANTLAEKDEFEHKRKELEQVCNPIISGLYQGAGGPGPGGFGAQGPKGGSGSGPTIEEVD
endogenous Hsp70 in human brain lysate: residues 2-641 of P0DMV8
UniProt O60260: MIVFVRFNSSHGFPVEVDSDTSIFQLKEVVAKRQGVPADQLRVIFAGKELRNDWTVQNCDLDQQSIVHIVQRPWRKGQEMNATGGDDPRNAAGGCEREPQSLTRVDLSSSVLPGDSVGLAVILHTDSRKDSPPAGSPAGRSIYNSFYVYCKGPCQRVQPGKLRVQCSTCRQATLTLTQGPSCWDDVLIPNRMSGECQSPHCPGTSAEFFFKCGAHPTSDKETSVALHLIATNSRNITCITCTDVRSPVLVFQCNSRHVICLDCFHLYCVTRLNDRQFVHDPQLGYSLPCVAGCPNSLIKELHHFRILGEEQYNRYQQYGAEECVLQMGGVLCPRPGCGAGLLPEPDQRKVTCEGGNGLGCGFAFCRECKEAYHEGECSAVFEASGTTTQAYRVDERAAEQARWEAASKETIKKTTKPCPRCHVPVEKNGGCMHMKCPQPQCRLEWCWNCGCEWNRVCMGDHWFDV

What was measured:
[1] = biological target: endogenous Hsp70 in human brain lysate (human) (UniProt P0DMV8); experiment: GST pull-down from human brain SNpc lysate
GFP-BAG5 (human) = biological target: T1, GFP-BAG5 (human) (UniProt Q9UL15); experiment: GST pull-down from transfected HEK293T cell lysates
T1 sequence: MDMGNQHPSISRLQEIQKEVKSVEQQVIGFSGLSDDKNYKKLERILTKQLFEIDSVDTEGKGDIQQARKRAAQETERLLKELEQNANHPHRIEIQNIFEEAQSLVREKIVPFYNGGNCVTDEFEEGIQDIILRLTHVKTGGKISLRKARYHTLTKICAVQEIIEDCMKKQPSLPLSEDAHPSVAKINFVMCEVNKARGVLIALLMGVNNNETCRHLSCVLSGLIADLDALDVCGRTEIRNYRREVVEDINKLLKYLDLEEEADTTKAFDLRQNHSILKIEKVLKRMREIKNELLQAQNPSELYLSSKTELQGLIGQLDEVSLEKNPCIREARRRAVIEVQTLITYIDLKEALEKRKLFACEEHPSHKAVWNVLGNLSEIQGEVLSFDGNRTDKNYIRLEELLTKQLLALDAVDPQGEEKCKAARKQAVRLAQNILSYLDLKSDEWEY

Hsp70 [2] = biological target: Hsp70 (UniProt P0DMV8); experiment: as above
[3] = biological target: T2, GFP-BAG5(DARA) (Homo sapiens (Human)) (UniProt Q9UL15); experiment: as above
T2 sequence: T1 sequence with D54A, R68A, D228A, R242A, D318A, R332A, D410A, R424A

His-Hsp70 (human) [4] = biological target: His-Hsp70 (human) (UniProt P0DMV8); experiment: in vitro GST pull-down with His-Hsp70
His-parkin (human) [5] = biological target: His-parkin (human) (UniProt O60260); experiment: in vitro GST pull-down (FIG. 4B)
His-parkin (human) [6] = biological target: His-parkin (human) (UniProt O60260); experiment: in vitro GST pull-down with recombinant His-parkin
[7] = biological target: endogenous Hsp70 in human brain lysate (human) (UniProt P0DMV8); experiment: co-immunoprecipitation from human brain lysate (FIG. 3C)
[8] = biological target: endogenous Hsp70 in human brain lysate (human) (UniProt P0DMV8); experiment: co-immunoprecipitation from human brain lysate
GFP-parkin (human) [9] = biological target: GFP-parkin (human) (UniProt O60260); experiment: co-immunoprecipitation from transfected HEK293T cells, with and also without overexpressed Hsp70
Hsp70 [10] = biological target: Hsp70 (UniProt P0DMV8); experiment: co-immunoprecipitation from transfected HEK293T lysate
GFP-parkin (human) [11] = biological target: GFP-parkin (human) (UniProt O60260); experiment: co-immunoprecipitation from transfected HEK293T lysates (FIG. 4A)
His-Hsp70 (human) [12] = biological target: His-Hsp70 (human) (UniProt P0DMV8); experiment: as above
Hsp70 [13] = biological target: Hsp70 (UniProt P0DMV8); experiment: co-immunoprecipitation from transfected HEK293T lysate (FIG. 3E)
FLAG-BAG5 (human) [14] = biological target: T3, FLAG-BAG5 (human) (UniProt Q9UL15); experiment: co-immunoprecipitation from transfected HEK293T lysate
T3 sequence: T1 sequence

[15] = biological target: T4, FLAG-BAG5(DARA) (Homo sapiens (Human)) (UniProt Q9UL15); experiment: as above
T4 sequence: T1 sequence with D54A, R68A, D228A, R242A, D318A, R332A, D410A, R424A

FLAG-BAG5 (human) [16] = biological target: T3, FLAG-BAG5 (human); experiment: co-immunoprecipitation from transfected HEK293T lysate (FIG. 3E)

Measured: binding

B1: GST-BAG5 (protein, not shown: a dimerising Fc or GST)
chain: T1 sequence
binds: [1] | GFP-BAG5 (human) | Hsp70 [2] | [3] | His-Hsp70 (human) [4] | His-parkin (human) [5] | His-parkin (human) [6]

B2: endogenous BAG5 in human brain lysate (protein)
chain: T1 sequence
binds: [7] | [8]

B3: FLAG-BAG5 (protein, not shown: small tags and cut ends)
chain: T1 sequence
binds: GFP-parkin (human) [9] | Hsp70 [10] | GFP-parkin (human) [11] | His-Hsp70 (human) [12] | Hsp70 [13]

B4: GFP-BAG5 (protein, not shown: large carriers)
chain: T1 sequence
binds: FLAG-BAG5 (human) [14] | [15] | FLAG-BAG5 (human) [16]

B5: GFP-BAG5(DARA) (protein, not shown: large carriers)
chain: T1 sequence with D54A, R68A, D228A, R242A, D318A, R332A, D410A, R424A
binds: FLAG-BAG5 (human) [14] | [15]

B6: GST-BAG5(DARA) (protein, not shown: a dimerising Fc or GST; large carriers; small tags and cut ends)
chain: T1 sequence with D54A, R68A, D228A, R242A, D318A, R332A, D410A, R424A
binds: GFP-BAG5 (human) | [3] | His-parkin (human) [5] | His-parkin (human) [6]

B7: FLAG-BAG5(DARA) (protein, not shown: small tags and cut ends)
chain: T1 sequence with D54A, R68A, D228A, R242A, D318A, R332A, D410A, R424A
binds: GFP-parkin (human) [9]

B8: GST-BAG1 (protein, human, UniProt Q99933-4 1-230, looked up, not shown: a dimerising Fc or GST)
chain: MNRSQEVTRDEESTRSEEVTREEMAAAGLTVTVTHSNEKHDLHVTSQQGSSEPVVQDLAQVVEEVIGVPQSFQKLIFKGKSLKEMETPLSALGIQDGCRVMLIGKKNSPQEEVELKKLKHLEKSVEKIADQLEELNKELTGIQQGFLPKDLQAEALCKLDRRVKATIEQFMKILEEIDTLILPENFKDSRLKRKGLVKKVQAFLAECDTVEQNICQETERLQSTNFALAE
binds: His-Hsp70 (human) [4]
